Data reported in patent publication US20210137897A1, “TOPICAL mTOR INHIBITORS FOR CUTANEOUS PROLIFERATIVE AND VASCULAR CONDITIONS” (GEORGETOWN UNIVERSITY, priority 2019, published 2021).
At least one compound was matched to its structure with a doubt left.

Columns and labels:
[1] = tested on: confluent and reticulated papillomatosis (CARP); experiment: Case report: topical 1% rapamycin cream in confluent and reticulated papillomatosis; assay type: in vivo, human
Excerpt: FIG. 1A is a photographic image of the chest of a patient afflicted with confluent and reticulated papillomatosis (CARP) before starting 3 months' treatment with topically applied 1% rapamycin (sirolimus).
FIG. 1B is a photographic image of the chest of the patient in FIG. 1A following 3 months' treatment with topically applied 1% rapamycin (sirolimus).
A person was initially diagnosed with CARP in October 2015 when they presented with numerous hyperpigmented, slightly velvety macules with a fine overlying scale coalescing into reticulated and confluent patches on their chest, neck, and upper back. […] They then embarked upon a course of topical 1% rapamycin cream applied to affected areas twice a day for 3 months. […] Pre- and post treatment photographs are presented as FIGS. 1A and 1B, respectively.

keloids = experiment: Case report: 1% topical rapamycin on keloidal, contracted burn scar; assay type: in vivo, human; details: person; 1% topical rapamycin one to two times a day, after 1 month; adjuvant after laser treatments
Excerpt: As an adjuvant treatment, they treated their worst keloidal, contracted scar on their thigh with 1% topical rapamycin one to two times a day.

[2] = tested on: non-Langerhans cell histiocytosis (non-LCH), benign cephalic histiocytosis (BCH); experiment: Case report: topical 1% rapamycin ointment in non-Langerhans cell histiocytosis (benign cephalic histiocytosis), split-face; assay type: in vivo, human
[3] = tested on: fibrofolliculoma lesions (Birt-Hogg-Dubé syndrome); details: topical 0.1% oral solution; 19 patients, split-face; cited from earlier work
[4] = tested on: capillary malformation-arteriovenous malformation (CM-AVM) syndrome; experiment: Case report: topical 1% rapamycin cream in CM-AVM syndrome; assay type: in vivo, human; details: person; topical 1% rapamycin cream twice a day, after several months
Excerpt: A person presented with several well demarcated pink to slightly tan patches with perilesional halos/rims of pallor scattered on their body, including one on their face. Many of those birthmarks were present since birth or at least since a very young age. The patient's parent also had similar-appearing birthmarks. The patient was otherwise well. Genetic testing confirmed a pathogenic variant identified in RASA1 gene consistent with capillary malformation-arteriovenous malformation (CM-AVM) syndrome. Per the patient and their parent's interest in a topical treatment, off-label use of topical 1% rapamycin cream was used twice a day to the lesion on the face.

facial angiofibromas = details: topical rapamycin; cited from earlier work
[5] = tested on: venolymphatic malformation; experiment: Case report: topical 1% sirolimus cream in venolymphatic malformation; assay type: in vivo, human
Excerpt: A person presented with a birthmark on the left thigh, present since birth. […] Clinically, it appeared most consistent with a mixed venolymphatic malformation, possibly with a small capillary component to it. Over the last few years, it began scabbing and occasionally bleeding at the surface. The deeper areas sometimes caused a throbbing pain. A decision was made to start treatment with topical 1% sirolimus cream twice a day. After 1.5 to 2 months treatment, the birthmark started to improve. Before starting topical sirolimus, they had painful episodes (6/10 severity) 2-3× per week that lasted 15-20 minutes. […] Additionally, overall the lesion was much flatter since starting the topical sirolimus. Their quality of life improved now that they were is in much less pain.
Previous reports have shown effectiveness of oral sirolimus in the treatment of venolymphatic malformations; however, to the best of inventor's knowledge, topical treatment has never been reported. This patient's venolymphatic malformation improved both symptomatically and improved in appearance with topical 1% rapamycin treatment. […] Additionally, inventor expects that all superficial or cutaneous vascular malformations and cutaenous vascular conditions would respond to treatment with topical mTOR inhibitor.

[6] = topical 1% sirolimus cream twice a day

Structure (SMILES) | response of CARP to earlier minocycline courses ([1]; same patient, treated twice with a 3-month course) | appearance of velvety brown reticulated patches and macules ([1]; person, topical 1% rapamycin cream twice a day for 3 months) | new CARP lesions ([1]; since using topical rapamycin 1% cream) | change of treated scar areas (keloids) | lesions on treated left face compared to untreated right face ([2]; follow up at 6 and 9 months, topical rapamycin (1%) ointment) | clinical response of extensive BCH ([2]; person, 1% topical rapamycin ointment twice daily) | lesions after then treating both sides of the face ([2]; topical rapamycin (1%) ointment, both sides of face) | size and number of lesions in comparison to the untreated side ([2]; unilateral treatment of one side of the face, topical rapamycin (1%) ointment) | size or number of fibrofolliculoma lesions compared with placebo [3] | appearance of the facial birthmark (patient and parent report) [4] | effectiveness, systemic absorption and side effects of topical use (facial angiofibromas) | frequency of painful episodes ([5]; after 1-2 months of topical 1% sirolimus, before treatment 2-3× per week) | flatness of the lesion ([5]; since starting topical 1% sirolimus) | color of the lesion [5, 6] | crusting [5, 6] | quality of life [5, 6]
CN(C)c1ccc(O)c2c1C[C@H]1C[C@H]3[C@H](N(C)C)C(O)=C(C(N)=O)C(=O)[C@@]3(O)C(O)=C1C2=O [minocycline] | each with improvement, but their symptoms consistently recurred a few months after |  |  |  |  |  |  |  |  |  |  |  |  |  |  | 
CO[C@H]1C[C@@H]2CC[C@@H](C)[C@@](O)(O2)C(=O)C(=O)N2CCCC[C@H]2C(=O)O[C@H]([C@H](C)C[C@@H]2CC[C@@H](O)[C@H](OC)C2)CC(=O)[C@H](C)/C=C(\C)[C@@H](O)[C@@H](OC)C(=O)[C@H](C)C[C@H](C)/C=C/C=C/C=C/1C [sirolimus, Sirolimus] |  | significant improvement | denied having developed any new CARP lesions | softening and flattening | fewer new lesions and as well as flattening and fading color of the lesions | clinically responded | continued improvement on both sides | significant improvement | did not result in reduction | improved in appearance and lessened in visibility | can be effective without systemic absorption or significant side effects | one episode of pain every 3 weeks | much flatter | improved, lightening some | much improved | improved
